Data on one molecule can be found in article PMC7505839.

Amino acid sequences for entries named in this document (tags omitted).
UniProt P62258: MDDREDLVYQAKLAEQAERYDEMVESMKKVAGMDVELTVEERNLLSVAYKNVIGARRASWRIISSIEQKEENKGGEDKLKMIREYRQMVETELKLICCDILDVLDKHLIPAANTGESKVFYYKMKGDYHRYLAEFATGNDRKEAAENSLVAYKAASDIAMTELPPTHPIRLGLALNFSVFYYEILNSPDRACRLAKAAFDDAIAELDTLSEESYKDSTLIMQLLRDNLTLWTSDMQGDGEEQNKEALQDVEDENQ

This experiment addresses 14-3-3ε (human (endogenous in HuCCT1)) (UniProt P62258). Description: co-IP; HuCCT1 cells pre-treated with 20 μM MG-132 for 2 h, 0.0 μM ATO for 6 h; 100 μg lysate protein incubated with 14-3-3ε antibody at 4 °C overnight, IgA plus IgG sepharose beads, western blot. (A western blot detects proteins with antibodies after separation by electrophoresis.)

Results are given in words; binding and its absence hold for the method and conditions named. Binding seen in cells or lysates may run through a third protein. Some entries that bind do so weakly or less than the wild type.

B1: 14-3-3η (protein, UniProt Q04917 1-246)
chain: MGDREQLLQRARLAEQAERYDDMASAMKAVTELNEPLSNEDRNLLSVAYKNVVGARRSSWRVISSIEQKTMADGNEKKLEKVKAYREKIEKELETVCNDVLSLLDKFLIKNCNDFQYESKVFYLKMKGDYYRYLAEVASGEKKNSVVEASEAAYKEAFEISKEQMQPTHPIRLGLALNFSVFYYEIQNAPEQACLLAKQAFDDAIAELDTLNEDSYKDSTLIMQLLRDNLTLWTSDQQDEEAGEGN
For B1, the binding entry is recorded as “binds”.
